According to US12167744B2, “Nicotine liquid formulations for aerosol devices and methods thereof” (JUUL Labs, Inc., priority 2013, dated 2024):
At least one read-out could not be matched to a standard name with certainty.

Assay: Aerosolized nicotine salt testing, analyte recovery (Example 13)
Format: physicochemical
Conditions: total recovered amount / theoretical amount generated by the electronic cigarette; 30 puffs

SMILES: O=C(O)c1ccccc1 [benzoic acid]
- % Recovery of benzoic acid: 90%
